# Measurements as given in article PMC7819943, “Rice protein-binding microarrays: a tool to detect cis-acting elements near promoter regions in rice”.
# Protein sequences, listed by entry. Tags and fused reporters are not part of them.
# UniProt Q0JBA9, entry or part of it: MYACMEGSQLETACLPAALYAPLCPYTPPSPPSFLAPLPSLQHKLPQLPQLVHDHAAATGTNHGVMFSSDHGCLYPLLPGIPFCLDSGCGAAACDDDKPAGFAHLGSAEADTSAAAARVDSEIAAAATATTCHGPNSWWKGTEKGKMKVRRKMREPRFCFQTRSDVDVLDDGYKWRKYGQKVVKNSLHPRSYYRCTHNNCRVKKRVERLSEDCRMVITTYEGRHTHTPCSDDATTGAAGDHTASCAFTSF
# This is one part of the list.
# Target: OsWRKY34 (Oryza sativa, UniProt Q0JBA9 1-250)
# Assay: protein-binding microarray (RPBM); PBS, 2% BSA, 51.3 ng/ul salmon testes DNA, 50 uM zinc acetate, 200 nM TF, 25 C, 1 h; high values mean tight binding
# Conditions: protein: recombinant; tags: N-terminal polyhistidine and DsRed monomer fusion (pET32a); label: CyDye5-dUTP incorporated in the synthesized complementary strand; 3' TTTTT single-stranded linker to array surface; dsDNA, one strand shown
# Outline: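 The binding signal for each feature is its fluorescence intensity in arbitrary units. An Axon 4000B scanner was used to read a custom Agilent array that had been made double-stranded with Cy5-dUTP primer extension, blocked with 2% BSA, incubated at 25 °C for 1 h with 200 nM protein in PBS, 2% BSA, salmon testes DNA and 50 µM zinc acetate, and washed. The protein was an N-terminal polyhistidine–DsRed transcription factor fusion from E. coli BL21-CodonPlus, purified on Ni–NTA.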
row,Sequence,binding signal
1,AGGTGAACAAAATCGTCTTTGCCTTTCATCACCCTTTACACGGAGTCACCTAGTGCAG,8870 fluorescence intensity (a.u.)
2,GGATAGCTGGGTCCCACGGTAGTAACGGCCGGCTTCACCACGGAGTCACCTAGTGCAG,8290 fluorescence intensity (a.u.)
3,AGTTGGCTGCTGCTTCTCCTCCTTCCCAGCAGCCATACCACGGAGTCACCTAGTGCAG,8940 fluorescence intensity (a.u.)
4,AATACCTTAAAATCCTTTTATACCGCAGTTACTCAACTTTCGGAGTCACCTAGTGCAG,8290 fluorescence intensity (a.u.)
5,TAATACTCTTTTCTGTTAACTTCTCTCTTTTTATTTACCACGGAGTCACCTAGTGCAG,8520 fluorescence intensity (a.u.)
6,ATGCCATGTGCTGAGGAACAATCTACTCTACCTGCCGTCGCGGAGTCACCTAGTGCAG,8500 fluorescence intensity (a.u.)
7,TTTTCCATCACATTAACCTGTCATACACACAAAACTTTTCCGGAGTCACCTAGTGCAG,9070 fluorescence intensity (a.u.)
8,GTTAAATTTGGAGCAGATTGACTTTGACCAAAACTAAAACCGGAGTCACCTAGTGCAG,8140 fluorescence intensity (a.u.)
9,AATATGAGTGTGGTGTTTAGTATGTGAGCATGTGTTTGTTCGGAGTCACCTAGTGCAG,10500 fluorescence intensity (a.u.)
10,AATCCACGCTATCACCATCTCGGATTCTCGATCGAGCCACCGGAGTCACCTAGTGCAG,9060 fluorescence intensity (a.u.)
11,TAAAGCCGGCCTGTATATGTTTCTCGTTTATTGATTTAGTCGGAGTCACCTAGTGCAG,8780 fluorescence intensity (a.u.)
12,ATGAAACTTTTTTATTCGATATCTCTGATGTCTCACCTACCGGAGTCACCTAGTGCAG,8370 fluorescence intensity (a.u.)
13,CCTTGTGGGTTTGCCTTGTCGCGCGTGTATGACTGGTAGACGGAGTCACCTAGTGCAG,10700 fluorescence intensity (a.u.)
14,CGTTCCCAGCTCCACCTCATCATCCATGGCGTCCACCGACCGGAGTCACCTAGTGCAG,8500 fluorescence intensity (a.u.)
15,CCTTGTGCCTCCACCACCCCAATTCGAAGCTGTTCCTGACCGGAGTCACCTAGTGCAG,12600 fluorescence intensity (a.u.)
16,GCATCCATTCCATCCGCTTGTGAGTTGACAGCATCAAAACCGGAGTCACCTAGTGCAG,9690 fluorescence intensity (a.u.)
17,TACTTCACCACTGATCTGAACATGAGATTCACATCGTTCCCGGAGTCACCTAGTGCAG,8260 fluorescence intensity (a.u.)
18,GTTACTGCTTCTATCCATCAGTCCAGCTTAAGCTTAATTACGGAGTCACCTAGTGCAG,8080 fluorescence intensity (a.u.)
19,TGTTCATCAGTTCATGAGTTCATCCTTCATCGTAGCACCCCGGAGTCACCTAGTGCAG,8650 fluorescence intensity (a.u.)
20,CTCCTCTAATTCATGTATTTTTCCTGTGGTCTAATCAAACCGGAGTCACCTAGTGCAG,9610 fluorescence intensity (a.u.)
21,ATTTAAATTTTCAACCTTAAATTTAGAGTTGACTTTGGTTCGGAGTCACCTAGTGCAG,10700 fluorescence intensity (a.u.)

row,Sequence,binding signal
1,TCCAGCAGCGTCCTCTCCCACAGCTGCACTCCCCATTCATCGGAGTCACCTAGTGCAG,10100 fluorescence intensity (a.u.)
2,TGTAGGATCAGTCGCACCATTGATTTTCTCCTTGCTTTTACGGAGTCACCTAGTGCAG,12700 fluorescence intensity (a.u.)
3,CTTTTACTGACCTTGTTGAATTGAACGCAACAATTTTCTTCGGAGTCACCTAGTGCAG,9920 fluorescence intensity (a.u.)
4,ATGTTGTGCCTGGGGATGCCTAAATTCTGTGCTTGCTTAACGGAGTCACCTAGTGCAG,10400 fluorescence intensity (a.u.)
5,CATCCATCACATATTTTACAGTGTCGCTATTCTCAATTAACGGAGTCACCTAGTGCAG,9890 fluorescence intensity (a.u.)
6,TCATGGTATGTTAATGATGGGTTCATTTGTATATTCTATCCGGAGTCACCTAGTGCAG,10200 fluorescence intensity (a.u.)
7,CCTCTCATTTTCATCTTCCCATTCTCAACTGCTCTCCTCTCGGAGTCACCTAGTGCAG,9880 fluorescence intensity (a.u.)
8,CGGCGGCGGTGGTGGGGAGGAGGAGGGCCAGCGGCAGCAACGGAGTCACCTAGTGCAG,17500 fluorescence intensity (a.u.)
9,CACACCACAGCTACTTACCTTGCCCGCCACACACTACACCCGGAGTCACCTAGTGCAG,9790 fluorescence intensity (a.u.)
10,ACAATCCATTTTATTCCAACAGATATATACACGGGGACAACGGAGTCACCTAGTGCAG,8410 fluorescence intensity (a.u.)
11,ATCCCCACCCCACTACTAGAATTCTTTGCTTCTTGGTGCTCGGAGTCACCTAGTGCAG,9620 fluorescence intensity (a.u.)
12,CATGTAGGGTCCATGTGGGTCTCACTTGCAACGTCAGTTACGGAGTCACCTAGTGCAG,8400 fluorescence intensity (a.u.)
13,CAAATGGTCAACAGATGTTGATAAAATCCACGCAAAATGTCGGAGTCACCTAGTGCAG,10900 fluorescence intensity (a.u.)
14,AGATTATCTCGCGACAACGTCAATTCAGTAACCACACCCTCGGAGTCACCTAGTGCAG,8310 fluorescence intensity (a.u.)
15,CATGCCACGCGAGATTACATTCTTATTTCCACCTCTCTTCCGGAGTCACCTAGTGCAG,9040 fluorescence intensity (a.u.)
16,TGTATTGCATCAACTGCCGCCACCGCTCGATATCCAGCTACGGAGTCACCTAGTGCAG,14100 fluorescence intensity (a.u.)
17,TACACTTGTATTCCTATCAGAATCCTATATTTTTTCTATTCGGAGTCACCTAGTGCAG,8790 fluorescence intensity (a.u.)
18,CTTTGCGCCGCCTCCGCCAACAGTCCTGCCACCGCTGCCGCGGAGTCACCTAGTGCAG,8680 fluorescence intensity (a.u.)
19,TTTGTTCTTGTTTGTTTTCTTCTCCTGACCAGTGTTTTCTCGGAGTCACCTAGTGCAG,12900 fluorescence intensity (a.u.)
20,GTTGTTTATATTTAACGTTTGATCGTTCGTCTTATTTAAACGGAGTCACCTAGTGCAG,12500 fluorescence intensity (a.u.)
21,CAGCAGCCAGGAACCAGCCACACATTCCACAGCCGCGACGCGGAGTCACCTAGTGCAG,8180 fluorescence intensity (a.u.)

# Look-ups from the list.
# AATCCACGCTATCACCATCTCGGATTCTCGATCGAGCCACCGGAGTCACCTAGTGCAG | binding signal: 9060 fluorescence intensity (a.u.)
# TAATACTCTTTTCTGTTAACTTCTCTCTTTTTATTTACCACGGAGTCACCTAGTGCAG | binding signal: 8520 fluorescence intensity (a.u.)

# The list goes on.

row,Sequence,binding signal
1,TGGAGAGCTGGTTATATAGGTGTTTGGAGAGTCCGTTTTACGGAGTCACCTAGTGCAG,8360 fluorescence intensity (a.u.)
2,CTTTTTCCCCGTGAGGACTATCACCGCGGCGCCGAATTGCCGGAGTCACCTAGTGCAG,8050 fluorescence intensity (a.u.)
3,CCTATTCCCTTCGACTCCACACCACCACAACTACCGCGCGCGGAGTCACCTAGTGCAG,12000 fluorescence intensity (a.u.)
4,GGCCATTTGTACCATTGTTAGCCATCTATGCTTGCTGTGCCGGAGTCACCTAGTGCAG,9330 fluorescence intensity (a.u.)
5,ATCCACAGCTTTGCAATGCTCTAGTTTTTAATAACCTTTTCGGAGTCACCTAGTGCAG,8440 fluorescence intensity (a.u.)
6,CATTTGCATACTTGTTTGTTGTGACACTCGTTTTCTTTGCCGGAGTCACCTAGTGCAG,8990 fluorescence intensity (a.u.)
7,TTTTTTCTGATTTTGCATGGCGCTCTCGCGGGTGTTTTTTCGGAGTCACCTAGTGCAG,11200 fluorescence intensity (a.u.)
8,TCTTCCCAACCAATCAAAACTCTCTACCATTCACTTTTCCCGGAGTCACCTAGTGCAG,9570 fluorescence intensity (a.u.)
9,CCGCCGCCGCTGCCGCTGCCCCTTCTCGCCGCCGGCTTCTCGGAGTCACCTAGTGCAG,8860 fluorescence intensity (a.u.)
10,GGTTTAGGCTGTGTTTAGTTCTTTTTTTAATTTTTTTTAACGGAGTCACCTAGTGCAG,16500 fluorescence intensity (a.u.)
11,CCATCGGTACCATCTGTTTCGTCTACTTCCTTTGTAATCTCGGAGTCACCTAGTGCAG,9150 fluorescence intensity (a.u.)
12,TCATACCCTATTTTAAGGTTGAGGGCATGAGGGGTGTAAACGGAGTCACCTAGTGCAG,9580 fluorescence intensity (a.u.)
13,CGCGGCAGCCGTCACGCTTCGGTCACTCATCCACTCCCACCGGAGTCACCTAGTGCAG,9220 fluorescence intensity (a.u.)
14,ACCCTCGTGCCGCCGCCGCCGCCGCCCCTCGTGCGGGCCCCGGAGTCACCTAGTGCAG,8460 fluorescence intensity (a.u.)
15,CGGTGTTCCTCCTGGCTATATATACACGACGCGTTGCCGTCGGAGTCACCTAGTGCAG,8970 fluorescence intensity (a.u.)
16,ATAACGGCTGATATGTGGGCCCCACGTACTTTTCTTAATTCGGAGTCACCTAGTGCAG,8200 fluorescence intensity (a.u.)
17,CTGGATTAGTGTTTCTTGGCGGGATTTGGTGAGCGATTGACGGAGTCACCTAGTGCAG,8320 fluorescence intensity (a.u.)
18,GGAAACAGTAACCGTCACCTCGCCTCGCCTCAAACCTCAACGGAGTCACCTAGTGCAG,8790 fluorescence intensity (a.u.)
19,CTCTCTCTCTCTCTCTCTCTCTCTCTCTCTCGTATTTTCCCGGAGTCACCTAGTGCAG,8750 fluorescence intensity (a.u.)
20,GAGTACTCGTCCGGGGTTTTTAACTTTTTGCCACTTTTAACGGAGTCACCTAGTGCAG,9100 fluorescence intensity (a.u.)
21,GGCTTCTTTTCTCTCCAATCTCTCTCTCTCTCTCTCTCTTCGGAGTCACCTAGTGCAG,8940 fluorescence intensity (a.u.)

# Five entries drawn at random from the list so far:
row,Sequence,binding signal
14,ACCCTCGTGCCGCCGCCGCCGCCGCCCCTCGTGCGGGCCCCGGAGTCACCTAGTGCAG,8460 fluorescence intensity (a.u.)
4,GGCCATTTGTACCATTGTTAGCCATCTATGCTTGCTGTGCCGGAGTCACCTAGTGCAG,9330 fluorescence intensity (a.u.)
21,GGCTTCTTTTCTCTCCAATCTCTCTCTCTCTCTCTCTCTTCGGAGTCACCTAGTGCAG,8940 fluorescence intensity (a.u.)
9,CCGCCGCCGCTGCCGCTGCCCCTTCTCGCCGCCGGCTTCTCGGAGTCACCTAGTGCAG,8860 fluorescence intensity (a.u.)
20,GAGTACTCGTCCGGGGTTTTTAACTTTTTGCCACTTTTAACGGAGTCACCTAGTGCAG,9100 fluorescence intensity (a.u.)

# More results

row,Sequence,binding signal
1,TAACTGGCTGTACATTTTTTTCCCATGTGTCACTGACATGCGGAGTCACCTAGTGCAG,8610 fluorescence intensity (a.u.)
2,AAACACTGCATCGCCACCGGCATCCATCCTCACCAAGATACGGAGTCACCTAGTGCAG,10700 fluorescence intensity (a.u.)
3,ATTATTTTTGTTTGACTGTTTAAAAATGACGACGAACAGACGGAGTCACCTAGTGCAG,8350 fluorescence intensity (a.u.)
4,CGCTGCCCACCTCCTTTCCTTTTTCCGCTGCCAGCCGACTCGGAGTCACCTAGTGCAG,9910 fluorescence intensity (a.u.)
5,CTGGCTTGCAACTACTACCCGTTAAGACCACGCGCGCCTCCGGAGTCACCTAGTGCAG,8230 fluorescence intensity (a.u.)
6,TTCCTAGTACTATCTGCGTTGCGTTGACTGACATGTGGGCCGGAGTCACCTAGTGCAG,17000 fluorescence intensity (a.u.)
7,AGGGTGGTAAAATAAACTTATTCCTGCTAGGCTAGGGAAACGGAGTCACCTAGTGCAG,9460 fluorescence intensity (a.u.)
8,CACTCCCGCAATCCCGCTGCTCGTGCCGCATACTCTCGCCCGGAGTCACCTAGTGCAG,13300 fluorescence intensity (a.u.)
9,AGTATGGGCCGGGTCACAATTGTCAAAGCTTTACAACGCACGGAGTCACCTAGTGCAG,9510 fluorescence intensity (a.u.)
10,TCTTGCGAGCTACGTTTTGGTTGGTGGTGTAGCGTGAGAACGGAGTCACCTAGTGCAG,11200 fluorescence intensity (a.u.)
11,GGAGGAGAGAGAGGAAGAGAGATGGTGAGGGGAGGGAGGACGGAGTCACCTAGTGCAG,10000 fluorescence intensity (a.u.)
12,TTGCCCAAGAGCTGACCCAACTCATTAAAATTACGCTTCTCGGAGTCACCTAGTGCAG,8270 fluorescence intensity (a.u.)
13,GGGAGGTTGTGCTTGGGTTGGTCGGGCGGTCGCTACTATGCGGAGTCACCTAGTGCAG,10600 fluorescence intensity (a.u.)
14,ATGGTCTTATTAATCACTTCTTATTTAAATTTCTCCCTATCGGAGTCACCTAGTGCAG,9800 fluorescence intensity (a.u.)
15,TTTTGCCCTTTTTCTCTCGCCAGCTCGGACCCGTCGTGACCGGAGTCACCTAGTGCAG,8730 fluorescence intensity (a.u.)
16,CGTGAACTTTCGATGCTTTAAAATCATTTTTGCCTTAAACCGGAGTCACCTAGTGCAG,8170 fluorescence intensity (a.u.)
17,GCCAGCAAGCCAAGCCCACCCAATCACCCCAACCGCCTCACGGAGTCACCTAGTGCAG,8220 fluorescence intensity (a.u.)
18,GACTCCACCAAGAACACAACTGCTGACGATTTGACGACTCCGGAGTCACCTAGTGCAG,8220 fluorescence intensity (a.u.)
19,ACGCTCTCCACCCGTCTCGCTCTCACCTCTCACTTCGACTCGGAGTCACCTAGTGCAG,11500 fluorescence intensity (a.u.)
20,GCTTGGCTTCGCAATCCCATGCATCGCCATGGCCGTTTCTCGGAGTCACCTAGTGCAG,8080 fluorescence intensity (a.u.)
21,TTGCTTTTCCTTTGTAGCTTCCCTTGCACTTATCATACTTCGGAGTCACCTAGTGCAG,10200 fluorescence intensity (a.u.)
